Some of the results follow.
Legend:
Experiment in all cases: log2 fold change, soluble protein after heating vs DMSO (PISA); higher = thermal stabilisation; K562 cells, 10 uM, 30 min; active = over 0.2 and 3.5 SD of the protein, either way, in both replicates (recomputed)
[1] = compound: COC1=CC=C(C=C1)CN2C=CC3=C2C=C(C=C3)C(=O)NO
Method in brief: (§1)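 K562 cells at 2×10^6 cells/mL were treated with 10 μM compound for 30 min. Aliquots were heated for 3 min across 48°C-58°C, pooled, and extracted in PBS with 0.5% NP-40 at 4°C; soluble protein was the supernatant after 21,000xg for 90 min. Soluble protein was quantified by TMTpro 16plex LC-MS/MS with channel sums equalised, and reported as log2 fold change in thermal stability against DMSO controls, with values from duplicates.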

By UniProt entry, the sequences of proteins in these tests, tags left out. Where a name states a change or a piece, a line headed by the entry shows the natural chain unless it says otherwise.
UniProt O43681: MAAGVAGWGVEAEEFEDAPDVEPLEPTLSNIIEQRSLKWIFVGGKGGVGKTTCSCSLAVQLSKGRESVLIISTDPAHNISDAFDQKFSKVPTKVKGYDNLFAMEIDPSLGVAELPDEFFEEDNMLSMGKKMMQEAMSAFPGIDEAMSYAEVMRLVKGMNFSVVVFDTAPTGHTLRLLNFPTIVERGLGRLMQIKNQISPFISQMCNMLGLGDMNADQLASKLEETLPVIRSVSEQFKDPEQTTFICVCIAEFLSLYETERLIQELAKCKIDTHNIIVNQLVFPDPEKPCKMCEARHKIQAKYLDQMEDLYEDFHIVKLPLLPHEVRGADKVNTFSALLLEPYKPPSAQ
UniProt Q96IX5: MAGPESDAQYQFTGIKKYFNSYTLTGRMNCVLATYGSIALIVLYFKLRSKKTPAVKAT
UniProt Q16864, whole entry, looked up: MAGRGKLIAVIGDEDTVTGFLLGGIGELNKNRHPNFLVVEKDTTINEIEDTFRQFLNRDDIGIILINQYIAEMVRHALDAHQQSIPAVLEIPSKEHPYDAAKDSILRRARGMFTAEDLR
UniProt Q9UH62: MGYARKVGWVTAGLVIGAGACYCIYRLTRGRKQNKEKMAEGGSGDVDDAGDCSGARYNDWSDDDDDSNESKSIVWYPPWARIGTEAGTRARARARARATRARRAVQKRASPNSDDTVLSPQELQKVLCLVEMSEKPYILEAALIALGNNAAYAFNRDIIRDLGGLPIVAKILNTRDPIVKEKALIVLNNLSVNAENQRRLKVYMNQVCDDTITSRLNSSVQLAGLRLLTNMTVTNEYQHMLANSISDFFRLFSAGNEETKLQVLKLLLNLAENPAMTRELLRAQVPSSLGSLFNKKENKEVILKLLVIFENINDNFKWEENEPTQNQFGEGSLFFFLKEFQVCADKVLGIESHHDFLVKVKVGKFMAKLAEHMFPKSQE
UniProt P23634: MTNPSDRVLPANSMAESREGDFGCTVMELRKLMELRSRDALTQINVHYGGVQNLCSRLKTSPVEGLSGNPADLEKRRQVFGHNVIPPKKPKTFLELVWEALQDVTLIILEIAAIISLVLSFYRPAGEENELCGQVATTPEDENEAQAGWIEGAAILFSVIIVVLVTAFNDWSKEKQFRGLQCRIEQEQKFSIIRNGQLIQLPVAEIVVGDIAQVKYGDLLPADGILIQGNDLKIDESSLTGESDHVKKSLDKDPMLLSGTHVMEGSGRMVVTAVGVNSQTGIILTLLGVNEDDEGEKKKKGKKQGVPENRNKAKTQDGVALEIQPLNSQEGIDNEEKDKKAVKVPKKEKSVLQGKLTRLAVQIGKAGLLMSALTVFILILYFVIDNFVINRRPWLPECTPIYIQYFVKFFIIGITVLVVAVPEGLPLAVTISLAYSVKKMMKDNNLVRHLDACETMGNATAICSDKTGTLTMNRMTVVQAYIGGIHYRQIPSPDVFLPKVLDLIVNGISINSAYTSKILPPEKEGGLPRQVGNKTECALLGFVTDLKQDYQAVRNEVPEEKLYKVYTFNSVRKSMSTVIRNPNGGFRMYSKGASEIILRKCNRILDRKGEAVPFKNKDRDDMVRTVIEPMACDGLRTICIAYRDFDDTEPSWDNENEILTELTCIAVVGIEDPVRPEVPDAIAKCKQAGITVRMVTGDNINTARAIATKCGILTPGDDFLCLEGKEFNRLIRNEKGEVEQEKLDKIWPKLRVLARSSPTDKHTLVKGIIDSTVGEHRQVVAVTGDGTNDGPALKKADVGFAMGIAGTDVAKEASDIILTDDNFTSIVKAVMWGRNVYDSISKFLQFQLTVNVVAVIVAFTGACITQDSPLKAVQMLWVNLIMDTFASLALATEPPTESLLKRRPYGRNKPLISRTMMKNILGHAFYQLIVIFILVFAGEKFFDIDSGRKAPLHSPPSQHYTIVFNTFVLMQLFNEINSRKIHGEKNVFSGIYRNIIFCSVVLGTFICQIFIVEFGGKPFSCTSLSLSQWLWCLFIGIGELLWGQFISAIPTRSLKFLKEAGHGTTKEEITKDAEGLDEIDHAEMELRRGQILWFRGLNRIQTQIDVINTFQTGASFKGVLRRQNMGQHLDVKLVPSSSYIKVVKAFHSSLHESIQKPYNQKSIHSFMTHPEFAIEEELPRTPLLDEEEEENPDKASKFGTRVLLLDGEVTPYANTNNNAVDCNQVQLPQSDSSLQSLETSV
UniProt Q9NQ11: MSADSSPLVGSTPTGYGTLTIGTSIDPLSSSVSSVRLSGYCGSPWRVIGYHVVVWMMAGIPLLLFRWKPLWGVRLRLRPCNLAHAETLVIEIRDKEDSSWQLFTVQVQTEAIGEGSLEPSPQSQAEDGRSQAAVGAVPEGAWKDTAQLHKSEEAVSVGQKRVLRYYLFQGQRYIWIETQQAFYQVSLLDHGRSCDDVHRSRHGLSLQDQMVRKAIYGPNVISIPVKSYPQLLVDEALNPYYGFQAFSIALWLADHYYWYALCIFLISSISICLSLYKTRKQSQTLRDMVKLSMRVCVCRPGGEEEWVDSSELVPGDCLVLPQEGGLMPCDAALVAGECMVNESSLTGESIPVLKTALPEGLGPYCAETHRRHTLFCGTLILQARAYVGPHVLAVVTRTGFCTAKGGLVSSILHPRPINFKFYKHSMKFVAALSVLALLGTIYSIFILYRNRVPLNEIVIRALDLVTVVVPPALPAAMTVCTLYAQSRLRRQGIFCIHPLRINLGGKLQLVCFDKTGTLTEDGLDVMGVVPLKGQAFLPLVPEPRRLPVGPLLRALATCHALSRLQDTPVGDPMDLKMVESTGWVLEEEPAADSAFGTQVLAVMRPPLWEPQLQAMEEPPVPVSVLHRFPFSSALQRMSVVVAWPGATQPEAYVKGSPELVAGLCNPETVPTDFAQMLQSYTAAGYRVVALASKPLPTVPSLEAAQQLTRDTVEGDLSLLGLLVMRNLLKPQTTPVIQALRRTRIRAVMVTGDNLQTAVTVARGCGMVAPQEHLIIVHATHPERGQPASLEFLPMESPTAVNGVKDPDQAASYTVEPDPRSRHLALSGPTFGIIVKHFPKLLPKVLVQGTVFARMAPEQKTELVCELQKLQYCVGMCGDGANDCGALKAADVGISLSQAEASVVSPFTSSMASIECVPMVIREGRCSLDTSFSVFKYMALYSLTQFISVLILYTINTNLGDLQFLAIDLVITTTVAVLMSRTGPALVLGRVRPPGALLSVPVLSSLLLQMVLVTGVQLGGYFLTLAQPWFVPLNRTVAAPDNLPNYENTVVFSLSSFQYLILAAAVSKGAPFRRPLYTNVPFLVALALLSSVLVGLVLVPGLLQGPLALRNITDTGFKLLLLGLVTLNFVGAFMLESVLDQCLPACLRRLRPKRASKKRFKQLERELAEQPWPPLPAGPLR
UniProt P36543, whole entry, looked up: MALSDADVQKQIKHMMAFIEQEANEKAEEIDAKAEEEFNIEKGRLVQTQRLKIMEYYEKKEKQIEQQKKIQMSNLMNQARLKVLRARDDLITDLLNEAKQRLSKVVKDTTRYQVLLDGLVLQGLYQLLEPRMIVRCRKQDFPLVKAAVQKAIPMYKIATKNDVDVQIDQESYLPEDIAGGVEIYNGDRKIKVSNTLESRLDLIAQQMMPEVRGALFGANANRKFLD
UniProt P06576, whole entry, looked up: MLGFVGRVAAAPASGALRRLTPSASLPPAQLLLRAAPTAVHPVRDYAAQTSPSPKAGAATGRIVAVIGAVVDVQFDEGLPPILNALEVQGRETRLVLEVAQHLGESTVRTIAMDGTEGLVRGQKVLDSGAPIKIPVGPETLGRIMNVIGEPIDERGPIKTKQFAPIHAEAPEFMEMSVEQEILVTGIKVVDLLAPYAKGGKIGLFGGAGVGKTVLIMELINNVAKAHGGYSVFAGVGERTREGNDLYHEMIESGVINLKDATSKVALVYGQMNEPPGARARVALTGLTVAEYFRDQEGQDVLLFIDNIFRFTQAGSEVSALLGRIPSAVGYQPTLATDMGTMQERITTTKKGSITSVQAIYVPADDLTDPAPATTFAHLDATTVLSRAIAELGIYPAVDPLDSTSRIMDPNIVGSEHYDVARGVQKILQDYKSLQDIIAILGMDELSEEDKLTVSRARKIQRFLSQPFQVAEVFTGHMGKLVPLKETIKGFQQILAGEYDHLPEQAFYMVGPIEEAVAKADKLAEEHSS
UniProt P40616: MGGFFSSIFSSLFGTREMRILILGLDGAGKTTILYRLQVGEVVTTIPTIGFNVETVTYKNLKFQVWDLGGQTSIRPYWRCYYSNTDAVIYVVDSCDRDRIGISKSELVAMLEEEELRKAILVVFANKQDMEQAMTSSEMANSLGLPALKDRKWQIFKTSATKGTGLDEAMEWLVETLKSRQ
UniProt P24539: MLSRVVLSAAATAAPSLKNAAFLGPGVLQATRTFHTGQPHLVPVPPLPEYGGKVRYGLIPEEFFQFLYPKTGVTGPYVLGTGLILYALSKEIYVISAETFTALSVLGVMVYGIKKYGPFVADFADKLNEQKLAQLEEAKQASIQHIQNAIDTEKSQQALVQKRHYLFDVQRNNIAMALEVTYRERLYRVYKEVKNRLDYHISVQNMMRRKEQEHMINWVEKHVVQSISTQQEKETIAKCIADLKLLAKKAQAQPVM
UniProt P56385: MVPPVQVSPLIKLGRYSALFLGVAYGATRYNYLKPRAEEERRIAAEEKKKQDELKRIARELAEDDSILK
UniProt P38606, whole entry, looked up: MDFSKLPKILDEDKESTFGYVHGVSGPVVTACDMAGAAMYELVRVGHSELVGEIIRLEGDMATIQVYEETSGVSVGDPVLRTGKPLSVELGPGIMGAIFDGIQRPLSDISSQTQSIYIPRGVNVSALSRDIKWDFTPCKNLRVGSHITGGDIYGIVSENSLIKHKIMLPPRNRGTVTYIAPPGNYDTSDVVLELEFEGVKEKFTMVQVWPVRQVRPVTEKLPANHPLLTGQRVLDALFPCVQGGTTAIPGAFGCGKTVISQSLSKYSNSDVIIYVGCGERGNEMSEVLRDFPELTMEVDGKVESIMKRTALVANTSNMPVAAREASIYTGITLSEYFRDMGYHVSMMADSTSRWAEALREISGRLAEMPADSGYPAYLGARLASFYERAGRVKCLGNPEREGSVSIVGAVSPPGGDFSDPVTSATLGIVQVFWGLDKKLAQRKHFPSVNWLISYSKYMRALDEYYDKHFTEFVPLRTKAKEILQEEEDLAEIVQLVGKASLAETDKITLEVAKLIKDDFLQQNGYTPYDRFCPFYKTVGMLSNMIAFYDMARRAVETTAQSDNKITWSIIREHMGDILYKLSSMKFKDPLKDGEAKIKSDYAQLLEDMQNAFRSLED
UniProt Q66PJ3: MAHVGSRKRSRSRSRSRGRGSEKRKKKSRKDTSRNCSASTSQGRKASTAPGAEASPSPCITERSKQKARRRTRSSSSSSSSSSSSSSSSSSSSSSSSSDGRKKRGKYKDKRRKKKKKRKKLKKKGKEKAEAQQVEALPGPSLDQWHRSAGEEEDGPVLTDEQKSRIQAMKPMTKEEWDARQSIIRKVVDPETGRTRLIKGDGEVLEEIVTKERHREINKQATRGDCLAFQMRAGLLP
UniProt P31939: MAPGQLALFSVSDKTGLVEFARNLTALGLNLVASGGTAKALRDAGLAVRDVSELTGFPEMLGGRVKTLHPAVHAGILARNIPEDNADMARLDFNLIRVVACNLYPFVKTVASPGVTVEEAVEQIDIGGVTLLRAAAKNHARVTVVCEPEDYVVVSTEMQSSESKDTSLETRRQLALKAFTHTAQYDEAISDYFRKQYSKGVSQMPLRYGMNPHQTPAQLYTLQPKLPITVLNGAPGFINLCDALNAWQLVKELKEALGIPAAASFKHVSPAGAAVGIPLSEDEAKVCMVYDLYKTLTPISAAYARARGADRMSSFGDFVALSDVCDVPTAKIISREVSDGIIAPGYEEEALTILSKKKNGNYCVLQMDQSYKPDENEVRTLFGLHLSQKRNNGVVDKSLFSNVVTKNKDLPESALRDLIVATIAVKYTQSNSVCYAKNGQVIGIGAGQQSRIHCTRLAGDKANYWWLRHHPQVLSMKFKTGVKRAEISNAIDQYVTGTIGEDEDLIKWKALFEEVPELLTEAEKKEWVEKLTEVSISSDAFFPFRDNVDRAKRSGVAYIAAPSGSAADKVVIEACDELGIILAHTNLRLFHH
UniProt P15336: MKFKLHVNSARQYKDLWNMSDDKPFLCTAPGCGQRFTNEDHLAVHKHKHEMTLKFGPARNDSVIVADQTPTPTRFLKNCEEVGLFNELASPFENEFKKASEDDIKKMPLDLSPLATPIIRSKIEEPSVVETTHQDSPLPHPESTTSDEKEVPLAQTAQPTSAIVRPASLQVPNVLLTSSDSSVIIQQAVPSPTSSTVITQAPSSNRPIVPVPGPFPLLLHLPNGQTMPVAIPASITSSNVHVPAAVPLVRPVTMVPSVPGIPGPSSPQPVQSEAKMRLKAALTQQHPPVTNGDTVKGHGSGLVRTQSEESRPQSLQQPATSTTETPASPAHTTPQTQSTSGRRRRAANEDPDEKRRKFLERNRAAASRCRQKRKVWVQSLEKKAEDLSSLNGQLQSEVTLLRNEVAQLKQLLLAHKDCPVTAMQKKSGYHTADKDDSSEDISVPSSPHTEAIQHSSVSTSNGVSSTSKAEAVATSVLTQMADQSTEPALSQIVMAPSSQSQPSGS

[2] = compound: CON(C)C(=O)N1N=C(c2cc(F)ccc2F)S[C@@]1(CCCN)c1ccccc1 [filanesib]
Method in brief: as §1

[3] = compound: CO[C@H]1C[C@@H]2CC[C@@H](C)[C@@](O)(O2)C(=O)C(=O)N2CCCC[C@H]2C(=O)O[C@H]([C@H](C)C[C@@H]2CC[C@H](n3cnnn3)[C@H](OC)C2)CC(=O)[C@H](C)/C=C(\C)[C@@H](O)[C@@H](OC)C(=O)[C@H](C)C[C@H](C)/C=C/C=C/C=C/1C [zotarolimus]
Method in brief: as §1

[4] = compound: COc1cc(C(=O)O)ccc1NC(=O)[C@@H]1N[C@@H](CC(C)(C)C)[C@](C#N)(c2ccc(Cl)cc2F)[C@H]1c1cccc(Cl)c1F [idasanutlin]
Method in brief: as §1

[5] = compound: COc1cc(Nc2ncc3c(n2)-c2ccc(Cl)cc2C(c2c(F)cccc2OC)=NC3)ccc1C(=O)O [alisertib]
Method in brief: as §1

[6] = compound: COc1cc2nc(-c3cc(F)ccc3O)nc(N[C@@H]3CNC[C@H]3C(C)(C)O)c2cc1OC
Method in brief: as §1

[7] = compound: COc1cc2ncnc(Nc3ccc(F)c(Cl)c3)c2cc1OCCCN1CCOCC1 [gefitinib]
Method in brief: as §1

[8] = compound: COc1cccc2cc(-c3nc([C@H]4CC[C@H](C(=O)O)CC4)n4ncnc(N)c34)[nH]c12
Method in brief: as §1

[9] = compound: CS(=O)(=O)CCNCc1ccc(-c2ccc3ncnc(Nc4ccc(OCc5cccc(F)c5)c(Cl)c4)c3c2)o1 [lapatinib]
Method in brief: as §1

[10] = compound: CS(=O)(=O)N1CCN(Cc2cc3nc(-c4cccc5[nH]ncc45)nc(N4CCOCC4)c3s2)CC1 [pictilisib]
Method in brief: as §1

Measured: log2 fold change

ASPSCR1 isoform 2 (UniProt Q9BZE9)
inactive: [1] 0.033 | [2] 0.064 | [3] -0.028 | [4] 0.007 | [5] -0.016 | [6] -0.014 | [7] 0.059 | [8] 0.032 | [9] 0.028 | [10] 0.004

ATP6AP2 (UniProt O75787)
inactive: [1] 0 | [2] -0.017 | [3] -0.044 | [4] 0.008 | [5] -0.056 | [6] -0.027 | [7] 0.005 | [8] -0.09 | [9] 0.023 | [10] -0.013

ATP2C1 isoform 7 (UniProt P98194)
inactive: [1] -0.019 | [2] -0.02 | [3] -0.06 | [4] -0.085 | [5] -0.038 | [6] -0.039 | [7] 0.052 | [8] 0.036 | [9] 0.007 | [10] 0.1

ARPC4 isoform 3 (UniProt P59998)
inactive: [1] -0.127 | [2] -0.007 | [3] 0.022 | [4] -0.039 | [5] -0.048 | [6] 0.058 | [7] 0.013 | [8] 0.083 | [9] -0.066 | [10] 0.108

ASNA1 (UniProt O43681)
inactive: [1] 0.044 | [2] -0.053 | [3] 0.013 | [4] -0.052 | [5] -0.045 | [6] -0.033 | [7] 0 | [8] 0.071 | [9] -0.001 | [10] 0.041

ARPC5 (UniProt O15511)
inactive: [1] 0.009 | [2] 0.023 | [3] -0.035 | [4] -0.004 | [5] 0.006 | [6] 0.04 | [7] -0.003 | [8] 0.078 | [9] 0.004 | [10] 0.043

Two neighbouring entries out of the list so far, quoted:
ARPC4 isoform 3 (UniProt P59998)
inactive: [1] -0.127 | [2] -0.007 | [3] 0.022 | [4] -0.039 | [5] -0.048 | [6] 0.058 | [7] 0.013 | [8] 0.083 | [9] -0.066 | [10] 0.108

ASNA1 (UniProt O43681)
inactive: [1] 0.044 | [2] -0.053 | [3] 0.013 | [4] -0.052 | [5] -0.045 | [6] -0.033 | [7] 0 | [8] 0.071 | [9] -0.001 | [10] 0.041

Next records

ATP5MD (UniProt Q96IX5)
inactive: [1] -0.06 | [2] 0.031 | [3] -0.013 | [4] 0.11 | [5] -0.148 | [6] -0.033 | [7] 0 | [8] 0.03 | [9] 0 | [10] 0.004

ARL15 (UniProt Q9NXU5)
inactive: [1] 0.11 | [2] -0.008 | [3] -0.031 | [4] -0.019 | [5] 0.052 | [6] -0.03 | [7] -0.009 | [8] 0.055 | [9] 0.031 | [10] 0.101

ATP6V1F isoform 2 (UniProt Q16864)
inactive: [1] 0.126 | [2] 0.162 | [3] 0.036 | [4] 0.095 | [5] -0.158 | [6] -0.151 | [7] 0.019 | [8] 0.021 | [9] -0.112 | [10] -0.054

ARMCX3 (UniProt Q9UH62)
inactive: [1] 0.002 | [2] 0.074 | [3] 0.004 | [4] 0.02 | [5] 0.084 | [6] 0.128 | [7] -0.039 | [8] 0.036 | [9] -0.042 | [10] -0.011

ATP2B4 (UniProt P23634)
inactive: [1] -0.007 | [2] 0.11 | [3] -0.039 | [4] 0.001 | [5] -0.097 | [6] 0.036 | [7] 0.043 | [8] 0.103 | [9] -0.016 | [10] 0.014

ATG16L1 (UniProt Q676U5)
inactive: [1] 0.033 | [2] -0.083 | [3] -0.036 | [4] -0.04 | [5] -0.054 | [6] -0.003 | [7] -0.018 | [8] 0.057 | [9] 0.029 | [10] 0.03

ATG9A (UniProt Q7Z3C6)
inactive: [1] 0.008 | [2] -0.113 | [3] -0.014 | [4] -0.003 | [5] 0.064 | [6] -0.073 | [7] 0.011 | [8] -0.015 | [9] -0.045 | [10] 0.075

ATP13A2 (UniProt Q9NQ11)
inactive: [1] 0.053 | [2] -0.134 | [3] 0.023 | [4] 0.027 | [5] -0.143 | [6] 0.019 | [7] -0.005 | [8] 0.053 | [9] -0.005 | [10] 0.066

ATP6V1E1 (UniProt P36543)
inactive: [1] -0.082 | [2] -0.007 | [3] 0.054 | [4] -0.015 | [5] -0.011 | [6] -0.091 | [7] -0.134 | [8] -0.041 | [9] -0.046 | [10] 0.012

ATP1A1 (UniProt P05023)
inactive: [1] 0.09 | [2] 0.013 | [3] 0.002 | [4] 0.004 | [5] -0.092 | [6] 0.032 | [7] 0.03 | [8] 0.054 | [9] -0.019 | [10] -0.023

ATP5F1B (UniProt P06576)
inactive: [1] -0.033 | [2] -0.025 | [3] -0.025 | [4] -0.001 | [5] -0.08 | [6] -0.006 | [7] 0.018 | [8] 0.064 | [9] -0.009 | [10] 0.01

ATP11B (UniProt Q9Y2G3)
inactive: [1] -0.043 | [2] 0.041 | [3] -0.041 | [4] -0.055 | [5] -0.041 | [6] -0.021 | [7] -0.022 | [8] 0.141 | [9] 0.019 | [10] 0.064

ARL1 (UniProt P40616)
active: [4] -0.254
inactive: [1] -0.007 | [2] -0.155 | [3] 0.03 | [5] -0.124 | [6] -0.042 | [7] 0.047 | [8] 0.042 | [9] 0.117 | [10] -0.135

ATP5PB (UniProt P24539)
inactive: [1] 0.033 | [2] -0.036 | [3] -0.007 | [4] -0.015 | [5] -0.033 | [6] -0.037 | [7] 0.005 | [8] 0.036 | [9] 0.004 | [10] 0.005

ARL6IP5 (UniProt O75915)
inactive: [1] -0.095 | [2] -0.101 | [3] -0.085 | [4] -0.066 | [5] -0.034 | [6] 0.078 | [7] -0.039 | [8] 0.006 | [9] -0.053 | [10] 0.014

ATP5ME (UniProt P56385)
inactive: [1] -0.023 | [2] -0.053 | [3] 0.002 | [4] -0.024 | [5] -0.027 | [6] -0.04 | [7] 0.021 | [8] 0.063 | [9] -0.001 | [10] 0.019

ATP13A3 (UniProt Q9H7F0)
inactive: [1] -0.034 | [2] 0.054 | [3] -0.158 | [4] -0.027 | [5] -0.098 | [6] -0.078 | [7] -0.02 | [8] -0.038 | [9] 0.005 | [10] 0.104

ARRB1 (UniProt P49407)
inactive: [1] -0.016 | [2] -0.032 | [3] 0.07 | [4] -0.056 | [5] 0 | [6] 0.019 | [7] 0.013 | [8] 0.02 | [9] -0.022 | [10] 0.064

ATP6V1A (UniProt P38606)
inactive: [1] -0.035 | [2] -0.013 | [3] -0.003 | [4] 0.036 | [5] -0.053 | [6] -0.085 | [7] -0.099 | [8] -0.015 | [9] -0.021 | [10] 0

ARL6IP4 (UniProt Q66PJ3)
inactive: [1] -0.025 | [2] 0.023 | [3] 0.014 | [4] 0.172 | [5] -0.053 | [6] 0.002 | [7] -0.039 | [8] 0.05 | [9] -0.023 | [10] -0.007

ATIC (UniProt P31939)
inactive: [1] 0.047 | [2] -0.039 | [3] 0.046 | [4] -0.03 | [5] -0.092 | [6] -0.027 | [7] 0.114 | [8] -0.008 | [9] -0.001 | [10] -0.008

ATF2 (UniProt P15336)
inactive: [1] -0.045 | [2] 0.056 | [3] 0.03 | [4] -0.02 | [5] 0.096 | [6] 0.086 | [7] 0.061 | [8] 0.279 | [9] -0.009 | [10] -0.079

ATP1A3 isoform 3 (UniProt P13637)
inactive: [1] -0.026 | [2] 0.064 | [3] -0.052 | [4] 0.042 | [5] -0.023 | [6] 0.093 | [7] 0.032 | [8] 0.058 | [9] -0.042 | [10] 0.081

ATP6V1D (UniProt Q9Y5K8)
inactive: [1] 0.042 | [2] -0.015 | [3] -0.003 | [4] 0.006 | [5] -0.162 | [6] -0.013 | [7] -0.061 | [8] -0.002 | [9] -0.028 | [10] -0.026
